Reference: paper PMC4102568
Results are given in words; binding and its absence hold for the method and conditions named. In cells and extracts the contact can be indirect. Some entries that bind do so weakly or less than the wild type.

The chains behind the UniProt entries cited, without tags or fusion partners.
UniProt O15047: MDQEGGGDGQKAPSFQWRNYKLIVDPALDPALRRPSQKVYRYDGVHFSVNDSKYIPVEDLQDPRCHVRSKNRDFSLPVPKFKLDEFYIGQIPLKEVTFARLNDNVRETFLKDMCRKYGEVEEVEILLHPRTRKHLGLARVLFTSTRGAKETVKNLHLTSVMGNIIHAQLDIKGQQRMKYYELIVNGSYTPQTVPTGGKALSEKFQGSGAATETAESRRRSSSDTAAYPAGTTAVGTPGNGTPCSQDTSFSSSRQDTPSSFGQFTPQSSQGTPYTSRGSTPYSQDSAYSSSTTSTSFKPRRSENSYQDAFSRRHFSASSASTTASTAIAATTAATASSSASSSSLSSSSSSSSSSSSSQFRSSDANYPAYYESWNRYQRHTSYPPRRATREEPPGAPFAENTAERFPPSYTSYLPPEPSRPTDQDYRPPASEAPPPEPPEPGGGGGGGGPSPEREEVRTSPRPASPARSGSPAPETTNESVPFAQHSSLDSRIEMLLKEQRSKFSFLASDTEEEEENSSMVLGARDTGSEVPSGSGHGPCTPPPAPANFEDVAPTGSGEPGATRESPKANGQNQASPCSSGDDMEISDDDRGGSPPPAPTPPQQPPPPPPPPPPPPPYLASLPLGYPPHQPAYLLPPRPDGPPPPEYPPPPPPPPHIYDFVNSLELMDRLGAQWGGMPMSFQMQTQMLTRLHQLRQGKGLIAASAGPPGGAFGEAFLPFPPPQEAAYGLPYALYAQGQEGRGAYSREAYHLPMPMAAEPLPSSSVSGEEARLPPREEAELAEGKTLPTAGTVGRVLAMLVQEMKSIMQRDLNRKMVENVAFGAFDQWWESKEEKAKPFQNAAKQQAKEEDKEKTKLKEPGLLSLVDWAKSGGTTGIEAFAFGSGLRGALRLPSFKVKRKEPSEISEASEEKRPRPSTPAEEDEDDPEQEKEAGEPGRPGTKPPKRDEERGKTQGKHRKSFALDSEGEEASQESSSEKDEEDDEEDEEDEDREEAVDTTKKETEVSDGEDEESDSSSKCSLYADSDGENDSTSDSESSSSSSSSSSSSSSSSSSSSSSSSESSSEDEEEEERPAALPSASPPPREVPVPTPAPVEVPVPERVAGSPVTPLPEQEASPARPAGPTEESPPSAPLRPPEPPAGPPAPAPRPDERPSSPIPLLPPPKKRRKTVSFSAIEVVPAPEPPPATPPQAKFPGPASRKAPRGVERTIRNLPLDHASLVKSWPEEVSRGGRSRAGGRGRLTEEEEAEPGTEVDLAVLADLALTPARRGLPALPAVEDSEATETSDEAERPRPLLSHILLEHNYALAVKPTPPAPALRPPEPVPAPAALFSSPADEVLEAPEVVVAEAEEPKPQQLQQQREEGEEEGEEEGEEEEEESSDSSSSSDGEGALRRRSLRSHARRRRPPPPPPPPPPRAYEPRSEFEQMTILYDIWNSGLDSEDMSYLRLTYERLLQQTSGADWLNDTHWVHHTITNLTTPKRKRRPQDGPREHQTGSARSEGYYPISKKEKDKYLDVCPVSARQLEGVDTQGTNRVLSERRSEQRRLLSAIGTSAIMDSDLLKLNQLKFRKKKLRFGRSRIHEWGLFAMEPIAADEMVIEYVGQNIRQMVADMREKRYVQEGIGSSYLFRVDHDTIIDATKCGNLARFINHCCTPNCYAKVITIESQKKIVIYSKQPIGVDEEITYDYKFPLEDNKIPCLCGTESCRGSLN
UniProt Q03164: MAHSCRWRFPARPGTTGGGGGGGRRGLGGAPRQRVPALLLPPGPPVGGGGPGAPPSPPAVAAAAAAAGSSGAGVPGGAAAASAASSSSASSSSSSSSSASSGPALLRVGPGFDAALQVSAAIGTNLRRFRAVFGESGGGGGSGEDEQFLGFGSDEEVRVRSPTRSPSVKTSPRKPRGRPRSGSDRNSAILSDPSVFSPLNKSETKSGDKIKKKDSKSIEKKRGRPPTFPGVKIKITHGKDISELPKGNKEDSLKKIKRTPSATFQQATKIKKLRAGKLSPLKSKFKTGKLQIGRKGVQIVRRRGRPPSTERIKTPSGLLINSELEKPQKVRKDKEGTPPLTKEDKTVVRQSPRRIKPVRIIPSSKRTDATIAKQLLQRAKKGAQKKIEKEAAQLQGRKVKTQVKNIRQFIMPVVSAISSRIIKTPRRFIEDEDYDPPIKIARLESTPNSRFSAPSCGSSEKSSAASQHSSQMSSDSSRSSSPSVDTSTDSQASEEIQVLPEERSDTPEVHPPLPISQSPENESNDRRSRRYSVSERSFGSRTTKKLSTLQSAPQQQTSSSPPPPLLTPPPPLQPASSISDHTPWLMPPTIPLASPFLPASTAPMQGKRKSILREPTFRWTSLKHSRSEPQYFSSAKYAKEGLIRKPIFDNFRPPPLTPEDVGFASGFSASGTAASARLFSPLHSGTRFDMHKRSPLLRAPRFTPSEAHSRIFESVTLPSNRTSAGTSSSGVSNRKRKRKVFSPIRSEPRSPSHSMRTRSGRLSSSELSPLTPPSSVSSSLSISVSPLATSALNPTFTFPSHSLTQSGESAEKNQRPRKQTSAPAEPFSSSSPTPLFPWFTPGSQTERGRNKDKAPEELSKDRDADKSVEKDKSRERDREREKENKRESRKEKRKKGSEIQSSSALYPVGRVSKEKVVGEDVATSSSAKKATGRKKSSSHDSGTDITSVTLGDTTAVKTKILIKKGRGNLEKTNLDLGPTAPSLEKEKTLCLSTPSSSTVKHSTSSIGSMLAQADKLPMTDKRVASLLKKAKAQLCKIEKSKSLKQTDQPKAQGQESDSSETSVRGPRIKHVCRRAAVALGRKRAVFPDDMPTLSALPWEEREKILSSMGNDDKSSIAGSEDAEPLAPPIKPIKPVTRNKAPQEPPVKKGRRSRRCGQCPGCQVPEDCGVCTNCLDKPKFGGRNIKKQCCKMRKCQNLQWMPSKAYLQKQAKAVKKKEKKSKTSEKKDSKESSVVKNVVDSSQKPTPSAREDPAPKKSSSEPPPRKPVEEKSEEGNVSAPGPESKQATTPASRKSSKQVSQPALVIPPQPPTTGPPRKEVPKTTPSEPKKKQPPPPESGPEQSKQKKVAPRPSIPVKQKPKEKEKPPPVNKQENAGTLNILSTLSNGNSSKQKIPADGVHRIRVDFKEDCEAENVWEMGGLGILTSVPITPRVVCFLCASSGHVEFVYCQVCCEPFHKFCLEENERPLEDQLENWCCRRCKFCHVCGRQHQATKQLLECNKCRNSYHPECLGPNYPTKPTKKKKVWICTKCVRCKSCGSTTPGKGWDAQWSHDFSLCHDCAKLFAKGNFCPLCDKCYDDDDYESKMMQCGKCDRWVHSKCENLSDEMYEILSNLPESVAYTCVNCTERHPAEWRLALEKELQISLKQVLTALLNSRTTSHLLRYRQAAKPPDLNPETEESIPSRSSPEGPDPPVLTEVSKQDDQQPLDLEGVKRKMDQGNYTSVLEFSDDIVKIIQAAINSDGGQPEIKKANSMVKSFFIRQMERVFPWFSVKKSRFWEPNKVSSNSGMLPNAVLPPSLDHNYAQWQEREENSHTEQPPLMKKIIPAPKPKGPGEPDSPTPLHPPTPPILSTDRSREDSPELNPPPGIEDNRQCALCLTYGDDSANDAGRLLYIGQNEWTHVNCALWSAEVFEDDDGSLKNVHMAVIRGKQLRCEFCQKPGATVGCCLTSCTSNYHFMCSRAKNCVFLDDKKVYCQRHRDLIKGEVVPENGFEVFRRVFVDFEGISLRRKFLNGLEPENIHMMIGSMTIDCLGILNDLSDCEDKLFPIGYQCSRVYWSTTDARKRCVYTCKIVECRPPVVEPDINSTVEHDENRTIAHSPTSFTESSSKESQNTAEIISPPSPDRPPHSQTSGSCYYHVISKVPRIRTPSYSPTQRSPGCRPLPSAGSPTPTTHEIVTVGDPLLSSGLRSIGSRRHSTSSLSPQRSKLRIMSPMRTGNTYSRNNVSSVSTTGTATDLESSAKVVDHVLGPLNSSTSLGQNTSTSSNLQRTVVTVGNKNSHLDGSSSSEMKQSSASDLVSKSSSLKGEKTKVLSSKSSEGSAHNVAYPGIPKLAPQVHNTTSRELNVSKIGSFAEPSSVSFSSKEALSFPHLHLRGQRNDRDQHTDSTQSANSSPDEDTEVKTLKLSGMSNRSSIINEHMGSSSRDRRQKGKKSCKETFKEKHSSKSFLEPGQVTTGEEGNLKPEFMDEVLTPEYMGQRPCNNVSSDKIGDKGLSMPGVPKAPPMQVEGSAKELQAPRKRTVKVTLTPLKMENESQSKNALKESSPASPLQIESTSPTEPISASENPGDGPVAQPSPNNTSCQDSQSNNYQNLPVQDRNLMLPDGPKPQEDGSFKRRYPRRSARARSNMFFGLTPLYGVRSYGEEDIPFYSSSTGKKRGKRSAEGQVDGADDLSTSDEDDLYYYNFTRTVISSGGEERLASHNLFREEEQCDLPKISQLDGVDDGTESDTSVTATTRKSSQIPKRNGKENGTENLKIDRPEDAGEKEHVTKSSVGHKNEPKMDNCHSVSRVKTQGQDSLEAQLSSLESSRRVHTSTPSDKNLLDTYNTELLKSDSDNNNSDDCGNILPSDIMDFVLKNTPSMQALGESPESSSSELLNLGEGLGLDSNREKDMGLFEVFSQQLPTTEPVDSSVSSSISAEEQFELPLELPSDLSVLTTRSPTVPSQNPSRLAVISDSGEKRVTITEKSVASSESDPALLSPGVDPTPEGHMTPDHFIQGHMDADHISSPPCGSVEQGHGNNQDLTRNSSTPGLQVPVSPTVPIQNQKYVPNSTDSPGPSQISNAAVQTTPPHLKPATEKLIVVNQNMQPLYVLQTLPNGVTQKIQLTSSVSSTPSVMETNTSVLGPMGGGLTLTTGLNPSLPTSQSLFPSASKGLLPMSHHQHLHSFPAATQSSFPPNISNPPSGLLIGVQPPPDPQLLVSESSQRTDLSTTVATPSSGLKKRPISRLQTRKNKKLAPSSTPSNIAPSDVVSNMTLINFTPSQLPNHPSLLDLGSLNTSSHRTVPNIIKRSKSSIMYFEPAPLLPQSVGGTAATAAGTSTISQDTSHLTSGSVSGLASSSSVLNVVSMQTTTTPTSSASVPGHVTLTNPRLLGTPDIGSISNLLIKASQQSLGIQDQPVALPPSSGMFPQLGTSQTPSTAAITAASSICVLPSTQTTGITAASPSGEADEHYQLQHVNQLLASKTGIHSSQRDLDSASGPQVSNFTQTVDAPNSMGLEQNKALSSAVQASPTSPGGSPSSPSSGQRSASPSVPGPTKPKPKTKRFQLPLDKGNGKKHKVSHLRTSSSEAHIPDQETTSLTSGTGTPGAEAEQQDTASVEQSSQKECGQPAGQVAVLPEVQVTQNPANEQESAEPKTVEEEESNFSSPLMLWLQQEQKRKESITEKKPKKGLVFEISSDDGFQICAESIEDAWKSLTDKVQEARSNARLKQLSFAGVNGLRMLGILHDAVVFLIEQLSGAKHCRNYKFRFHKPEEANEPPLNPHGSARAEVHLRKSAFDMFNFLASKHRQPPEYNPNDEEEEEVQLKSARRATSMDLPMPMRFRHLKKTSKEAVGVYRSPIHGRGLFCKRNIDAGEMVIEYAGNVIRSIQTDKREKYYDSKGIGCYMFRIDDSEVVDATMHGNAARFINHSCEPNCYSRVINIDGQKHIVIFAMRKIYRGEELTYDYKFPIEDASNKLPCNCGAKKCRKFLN

Molecular target: latency-associated nuclear antigen (LANA) (Kaposi's sarcoma-associated herpesvirus (KSHV, HHV8) (endogenous in latently infected BCBL-1, BC-3, TIVE-LTC)) (UniProt Q9QR71)
Assay: co-IP; nuclear extract of BCBL-1, BC-3 or TIVE-LTC cells (extracted at 500 mM NaCl, diluted to 150 mM NaCl), immunoprecipitated with monoclonal rat antibody against LANA or control IgG at 4°C overnight, protein A/G beads, washed with PBS with 0.1% Tween-20, Western blot for endogenous RbBP5, ASH2L, hSET1 or MLL1

Substance | binding
H3K4 methyltransferase hSET1 (from UniProt O15047 1-1707) (enzyme) | binds
MLL1 (from UniProt Q03164 1-3969) (enzyme) | no binding
